{"source": "PubChem BioAssay AID493014", "about": "(National Center for Advancing Translational Sciences (NCATS), 2011)", "note": "Among all 340,000 compounds or so, about 170 (0.05%) were called active. Inconclusive means that the source gave no clear call. Such entries were picked first, then a sample of the others. The call rests on the fitted dose curve; in most records, active means well fitted inhibition curve with a large enough effect in the signal ratio, with a control signal flat (not every such curve was filed as active); inconclusive means small, poorly fitted or top-dose-only effect, or effect the other way, or a change in a side signal; inactive means flat fitted curve, though single readings scatter; the % refers to the signal ratio. Potencies of inconclusive entries are doubtful fits and often do not repeat.", "data": [{"experiment": "qHTS Assay to Find Inhibitors of Chronic Active B-Cell Receptor Signaling; further: potency means the concentration at half of the fitted maximal effect;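 on activity change, negative = inhibition: plate controls were basal doxycycline-induced cells for no effect and cells given 10 µM MG132 for full effect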", "conditions": "ABC-DLBCL IkBa-CBG/CBR reporter, luminescence ratio (green luciferase fused to IkBa over red control in TMD8 lymphoma cells), 4 h; activity change, negative = inhibition: at 46.1 µM (top of the series) unless noted", "summary_of_the_method": "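TMD8 ABC-DLBCL cells carrying doxycycline-inducible green luciferase fused to IkappaBalpha plus unfused red luciferase were exposed to compounds (up to 46 uM) for 4 hrs at 37C. Activity came from the overlap-corrected green/red luminescence ratio.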", "values": [{"compound": "Cc1cc(C)cc(NC(=O)C2CC3CCC2C3)c1", "note": "(configuration not stated)", "activity change, negative = inhibition": "inconclusive: -0.336%"}, {"compound": "Cc1ccccc1OCC(=O)O/N=C(\\N)Cc1ccc(Cl)cc1", "activity change, negative = inhibition": "inconclusive: 18.8%"}, {"compound": "COC(=O)/C=C(\\C)N=Nc1c(O)[nH]c2ccccc12", "activity change, negative = inhibition": "inconclusive: 1.86%"}, {"compound": "C/C=C/c1ccc(OCCCNC2CCCC2)c(OC)c1", "activity change, negative = inhibition": "inconclusive: -18.4%"}, {"compound": "Nc1nnnn1NCc1cccc(OCc2ccccc2)c1", "activity change, negative = inhibition": "inactive: 3.35%"}, {"compound": "CCOC(=O)CCS(=O)(=O)c1nc(-c2ccccc2)cc(C(F)(F)F)n1", "activity change, negative = inhibition": "inconclusive: 17.5%"}, {"compound": "O=C(Nc1ccccc1C(=O)OCC(=O)c1c[nH]c2ccccc12)c1ccco1", "activity change, negative = inhibition": "inactive: -9.37%"}, {"compound": "CCOc1cc(NC(=S)NCCOC)c(OCC)cc1NC(=O)c1cccs1", "activity change, negative = inhibition": "inconclusive: 15.9%"}, {"compound": "CCC(=O)Oc1ccc(NC(=O)CSCc2ccccc2)cc1", "activity change, negative = inhibition": "inactive: -2.51%"}, {"compound": "Nc1nc(N)c(N=Nc2ccc(C(=O)O)cc2)c(N)n1", "Potency": "inconclusive: 31.6 µM [falling, single point]"}, {"compound": "Cc1ccc2oc(Nc3nc(-c4ccccc4)cc(=O)[nH]3)nc2c1", "activity change, negative = inhibition": "inconclusive: 4.16%"}, {"compound": "O=C(NCC1COc2ccccc2O1)c1cc(S(=O)(=O)N2CCOCC2)ccc1F", "note": "(configuration not stated)", "activity change, negative = inhibition": "inconclusive: 9.99%"}, {"compound": "CCCCOC(=O)n1c(=O)oc2ccccc21", "Potency": "inconclusive: 16.4 µM [falling, single point]"}, {"compound": "COc1cccc(/C=C/c2ccc3ccccc3n2)c1OC(C)=O", "Potency": "inconclusive: 35.5 µM [rising, single point]"}, {"compound": "COCCCn1c(O)c(/C=C2\\N=C(C#N)C(=Nc3ccc(C)cc3)O2)sc1=S", "activity change, negative = inhibition": "inconclusive: 9.54%"}, {"compound": "O=C(COc1ccc(Oc2ccccc2)cc1)NC1CCS(=O)(=O)C1", "note": "(configuration not stated)", "activity change, negative = inhibition": "inactive: -1.56%"}, {"compound": "CC(=O)Nc1ccc(S(=O)(=O)NCCCN2CCN(Cc3ccccc3)CC2)cc1Cl", "activity change, negative = inhibition": "inconclusive: -2.14%"}, {"compound": "COc1ccc(CNC(=O)C2CCN(C(=O)c3ccc(-c4ccccc4)cc3)CC2)cc1", "Potency": "inconclusive: 35.5 µM [falling, single point]"}, {"compound": "Cc1cccc(C(=O)Nc2ccccc2SCC2CSc3nc4ccccc4c(=O)n32)c1", "note": "(configuration not stated)", "activity change, negative = inhibition": "inconclusive: -4.26%"}, {"compound": "CCC(C)N(C(=O)COC(=O)c1ccc(=O)n(Cc2ccccc2)n1)C1CCS(=O)(=O)C1", "note": "(configuration not stated)", "activity change, negative = inhibition": "inactive: -0.385%"}, {"compound": "Cn1cc(/C=C2\\SC(=O)N(c3ccc(O)cc3)C2=O)c2ccccc21", "Potency": "inconclusive: 4.47 µM [falling, partial curve, poor fit]"}, {"compound": "O=C(NCc1ccccn1)c1ccc(N2CCCC2)c([N+](=O)[O-])c1", "activity change, negative = inhibition": "inconclusive: 1.59%"}, {"compound": "COc1ccc(CNC(=O)c2c(Nc3ccccc3C)sc(C(=O)c3ccccc3)c2N)cc1", "Potency": "inconclusive: 22.4 µM [cytotoxic, partial curve]"}, {"compound": "O=C(CCNS(=O)(=O)c1ccc(Cl)cc1)Nc1ccncc1", "activity change, negative = inhibition": "inconclusive: -10.5%"}, {"compound": "O=C(C1CCC1)N1CCN(c2ccc(C(F)(F)F)cc2[N+](=O)[O-])CC1", "activity change, negative = inhibition": "inactive: -2.8%"}, {"compound": "Cc1ccc(CN2C(=O)CCC2C(=O)NC2CCCC2)cc1", "note": "(configuration not stated)", "activity change, negative = inhibition": "inconclusive: 17.9%"}, {"compound": "CCc1cc(C(=O)N=Nc2c(O)[nH]c3c(Br)cc(Br)cc23)c2ccccc2n1", "activity change, negative = inhibition": "inactive: -10.1%"}, {"compound": "COc1ccc(-c2coc3cc(O[C@@H]4O[C@H](CO)[C@@H](O)[C@H](O)[C@H]4O)c(OC)cc3c2=O)cc1", "activity change, negative = inhibition": "inconclusive: 1.57%"}, {"compound": "COc1ccc(N2CCN(C(=S)NC(=O)c3cccs3)CC2)c([N+](=O)[O-])c1", "activity change, negative = inhibition": "inconclusive: -9.96%"}, {"compound": "CCN(CC)C(=O)Cc1cn(C)c2ccccc12", "Potency": "inconclusive: 6.31 µM [falling, single point]"}, {"compound": "Cn1c(SCc2ccc(Br)cc2)nnc1-c1cccs1", "activity change, negative = inhibition": "inconclusive: -0.133%"}, {"compound": "COCCn1c(=O)[nH]c(=O)c2cc(C(=O)c3cc(Cl)ccc3O)cnc21", "activity change, negative = inhibition": "inconclusive: -1.09%"}, {"compound": "CCc1nnc(NC(=O)c2ccc(-c3ccc(Cl)cc3)o2)s1", "activity change, negative = inhibition": "inconclusive: 41.9%"}, {"compound": "C/C(N)=C(/C#N)C(=O)CSc1nnc(COc2ccccc2Cl)o1", "activity change, negative = inhibition": "inconclusive: 2.44%"}, {"compound": "O=C(NC1CCCC1)c1ccc2c(c1)N(Cc1ccccc1Cl)C(=O)c1ccccc1S2", "activity change, negative = inhibition": "inactive: 12%"}, {"compound": "Fc1ccc(NC(=S)N2CCCC2)cc1Cl", "activity change, negative = inhibition": "inconclusive: -1.63%"}, {"compound": "CC1Cc2cc(-c3csc(NC(=O)Cc4ccccc4)n3)ccc2N1S(C)(=O)=O", "note": "(configuration not stated)", "activity change, negative = inhibition": "inactive: -28.2%"}, {"compound": "Cc1oc2c(CN3CCCC(C)C3)c(O)ccc2c(=O)c1-c1ccccc1", "note": "(configuration not stated)", "activity change, negative = inhibition": "inconclusive: -0.596%"}, {"compound": "CC(=Nc1ccccc1O)c1sc2ccccc2c1O", "Potency": "inconclusive: 22.4 µM [falling, single point]"}, {"compound": "C/C(CC(=O)NCc1ccccc1)=N\\NC(=O)c1cnccn1", "Potency": "inconclusive: 16.4 µM [falling, single point]"}, {"compound": "Cc1ccc(-c2csc(NC(=O)c3cccc(N4C(=O)CCC4=O)c3)n2)o1", "activity change, negative = inhibition": "inconclusive: 17%"}, {"compound": "CCOc1cc(CNc2nn[nH]n2)ccc1OCC(=O)NC(C)(C)C", "Potency": "inconclusive: 6.31 µM [falling, single point]"}, {"compound": "O=c1[nH]c(NCCO)nc2c1C1(CCCCC1)Cc1ccccc1-2", "activity change, negative = inhibition": "inconclusive: -0.818%"}, {"compound": "CCOC(=O)N1CCN(C(=O)c2cc(COc3cccc(C(F)(F)F)c3)on2)CC1", "activity change, negative = inhibition": "inconclusive: -3.09%"}, {"compound": "Cc1nnc(NC(=O)/C=C/c2ccco2)s1", "activity change, negative = inhibition": "inconclusive: -1.57%"}, {"compound": "NC1=NC(c2ccccc2)N=C(Nc2ccccc2)N1", "note": "(configuration not stated)", "Potency": "inconclusive: 35.5 µM [falling, single point]"}, {"compound": "Cc1nn(C)c(C)c1NC(=O)CSc1nc(C2CC2)nc2c1cnn2-c1ccccc1", "activity change, negative = inhibition": "inconclusive: -0.0444%"}, {"compound": "COc1ccc(NC(=O)c2nc(SC)ncc2Cl)cc1", "Potency": "inconclusive: 35.5 µM [falling, partial curve, poor fit]"}, {"compound": "CCC(C)NC(=O)N[C@@H](Cc1ccccc1)C(=O)O", "note": "(some centres not stated)", "activity change, negative = inhibition": "inconclusive: -113%"}, {"compound": "CCCCN(CCCC)CCNC(=O)c1cc(=O)[nH]c2ccc(S(=O)(=O)N3CCCCCC3)cc12", "activity change, negative = inhibition": "inactive: -2.99%"}, {"compound": "CCOC(=O)c1nnc(-c2ccc(C)cc2)nc1Oc1ccccc1Cl", "Potency": "inconclusive: 6.51 µM [falling, single point]"}, {"compound": "COc1ccccc1CNC(=O)C(=O)NCC1CCCO1", "note": "(configuration not stated)", "Potency": "inconclusive: 20.6 µM [falling, partial curve]"}]}]}
